No constants are given. Whether binding was seen depends on the method and setting. Binding seen in cells or lysates may run through a third protein. Some entries that bind do so weakly or less than the wild type.
Experiments:
[1] = target: T1, Knirps (UniProt P10734); experiment: GST pull-down, radiolabeled protein on GST-dCtBP beads
T1 sequence (radiolabeled (synthesized in a coupled in vitro system), looked up): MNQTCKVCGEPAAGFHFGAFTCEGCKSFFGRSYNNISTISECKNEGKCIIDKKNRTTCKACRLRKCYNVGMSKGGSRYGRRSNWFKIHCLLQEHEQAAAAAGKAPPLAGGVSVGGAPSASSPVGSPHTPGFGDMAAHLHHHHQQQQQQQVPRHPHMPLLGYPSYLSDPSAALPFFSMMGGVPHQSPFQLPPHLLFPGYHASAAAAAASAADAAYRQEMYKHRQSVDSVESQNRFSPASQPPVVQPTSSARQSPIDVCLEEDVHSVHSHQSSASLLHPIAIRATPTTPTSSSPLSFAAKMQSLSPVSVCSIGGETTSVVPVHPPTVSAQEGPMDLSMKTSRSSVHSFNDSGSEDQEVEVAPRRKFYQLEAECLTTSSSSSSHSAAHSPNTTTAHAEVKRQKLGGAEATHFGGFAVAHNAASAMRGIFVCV

Amino acid sequences for entries named in this document (tags omitted). A change or cut given only in a name is not applied to a line headed by its entry. Chains listed by the source or under a name are the forms on record and can include a tag or linker.
UniProt P42003: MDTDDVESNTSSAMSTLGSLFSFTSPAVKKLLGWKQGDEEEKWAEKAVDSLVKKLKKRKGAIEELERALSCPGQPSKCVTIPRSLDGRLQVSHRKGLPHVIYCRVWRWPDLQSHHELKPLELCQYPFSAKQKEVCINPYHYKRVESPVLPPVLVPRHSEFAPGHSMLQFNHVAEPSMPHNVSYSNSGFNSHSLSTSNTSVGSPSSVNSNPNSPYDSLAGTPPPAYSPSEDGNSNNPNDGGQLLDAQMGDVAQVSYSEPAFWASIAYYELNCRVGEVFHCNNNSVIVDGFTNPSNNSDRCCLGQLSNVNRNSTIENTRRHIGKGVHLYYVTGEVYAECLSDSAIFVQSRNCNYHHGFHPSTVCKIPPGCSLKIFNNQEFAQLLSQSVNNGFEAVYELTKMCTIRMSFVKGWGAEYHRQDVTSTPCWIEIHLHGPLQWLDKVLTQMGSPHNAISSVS
GST-dCtBP (O46036, form named): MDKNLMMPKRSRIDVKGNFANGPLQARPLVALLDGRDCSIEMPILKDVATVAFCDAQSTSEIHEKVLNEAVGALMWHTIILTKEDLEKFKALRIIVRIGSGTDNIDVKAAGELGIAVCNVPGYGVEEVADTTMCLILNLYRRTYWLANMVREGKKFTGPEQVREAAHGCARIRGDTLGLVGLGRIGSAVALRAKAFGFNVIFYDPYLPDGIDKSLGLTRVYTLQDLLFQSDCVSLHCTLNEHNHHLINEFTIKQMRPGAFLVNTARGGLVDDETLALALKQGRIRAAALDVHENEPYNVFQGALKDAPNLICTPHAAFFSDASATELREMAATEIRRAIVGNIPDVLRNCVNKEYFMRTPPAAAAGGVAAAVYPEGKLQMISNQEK

[2] = target: Mad (MadNLC, full length protein) (Drosophila) (UniProt P42003); experiment: GST pull-down, radiolabeled in vitro translated protein on GST-dCtBP beads
[3] = target: Mad (MadNLC, full length protein) (Drosophila) (UniProt P42003); experiment: GST pull-down (FIG. 1 legend)
[4] = target: Mad (MadNLC, full length protein) (Drosophila) (UniProt P42003); experiment: summary of the GST pull-down finding

- binding [1]: binds
- binding [2]: binds
- binding [3]: binds
- binding [4]: binds
Substance: GST-dCtBP (from UniProt O46036 1-386)
